Source: the supplement of paper PMC6411743
± gives the standard deviation of the averaged measurements. The list shows a part of the results.

The chains behind the UniProt entries cited, without tags or fusion partners. Where a name states a change or a piece, a line headed by the entry shows the natural chain unless it says otherwise.
UniProt O96019, whole entry: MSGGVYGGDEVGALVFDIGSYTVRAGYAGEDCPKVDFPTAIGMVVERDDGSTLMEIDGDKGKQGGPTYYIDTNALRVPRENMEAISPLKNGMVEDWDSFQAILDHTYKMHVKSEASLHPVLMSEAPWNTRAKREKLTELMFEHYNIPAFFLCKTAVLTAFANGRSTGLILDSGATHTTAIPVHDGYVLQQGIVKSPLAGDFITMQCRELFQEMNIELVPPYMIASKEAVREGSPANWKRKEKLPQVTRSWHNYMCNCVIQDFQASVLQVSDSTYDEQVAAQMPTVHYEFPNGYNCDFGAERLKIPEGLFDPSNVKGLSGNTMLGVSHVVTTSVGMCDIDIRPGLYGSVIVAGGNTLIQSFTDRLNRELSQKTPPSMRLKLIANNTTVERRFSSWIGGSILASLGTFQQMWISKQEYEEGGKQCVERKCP
UniProt P00167, whole entry: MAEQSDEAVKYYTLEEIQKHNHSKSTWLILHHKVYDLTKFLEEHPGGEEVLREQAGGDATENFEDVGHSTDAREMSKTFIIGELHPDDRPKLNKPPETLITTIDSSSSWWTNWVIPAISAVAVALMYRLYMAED
UniProt P04234, whole entry: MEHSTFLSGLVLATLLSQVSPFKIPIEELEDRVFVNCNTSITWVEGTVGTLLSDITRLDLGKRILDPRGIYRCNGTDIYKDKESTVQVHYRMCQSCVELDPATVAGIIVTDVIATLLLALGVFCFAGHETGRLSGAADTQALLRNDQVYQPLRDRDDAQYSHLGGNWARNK
UniProt O94915: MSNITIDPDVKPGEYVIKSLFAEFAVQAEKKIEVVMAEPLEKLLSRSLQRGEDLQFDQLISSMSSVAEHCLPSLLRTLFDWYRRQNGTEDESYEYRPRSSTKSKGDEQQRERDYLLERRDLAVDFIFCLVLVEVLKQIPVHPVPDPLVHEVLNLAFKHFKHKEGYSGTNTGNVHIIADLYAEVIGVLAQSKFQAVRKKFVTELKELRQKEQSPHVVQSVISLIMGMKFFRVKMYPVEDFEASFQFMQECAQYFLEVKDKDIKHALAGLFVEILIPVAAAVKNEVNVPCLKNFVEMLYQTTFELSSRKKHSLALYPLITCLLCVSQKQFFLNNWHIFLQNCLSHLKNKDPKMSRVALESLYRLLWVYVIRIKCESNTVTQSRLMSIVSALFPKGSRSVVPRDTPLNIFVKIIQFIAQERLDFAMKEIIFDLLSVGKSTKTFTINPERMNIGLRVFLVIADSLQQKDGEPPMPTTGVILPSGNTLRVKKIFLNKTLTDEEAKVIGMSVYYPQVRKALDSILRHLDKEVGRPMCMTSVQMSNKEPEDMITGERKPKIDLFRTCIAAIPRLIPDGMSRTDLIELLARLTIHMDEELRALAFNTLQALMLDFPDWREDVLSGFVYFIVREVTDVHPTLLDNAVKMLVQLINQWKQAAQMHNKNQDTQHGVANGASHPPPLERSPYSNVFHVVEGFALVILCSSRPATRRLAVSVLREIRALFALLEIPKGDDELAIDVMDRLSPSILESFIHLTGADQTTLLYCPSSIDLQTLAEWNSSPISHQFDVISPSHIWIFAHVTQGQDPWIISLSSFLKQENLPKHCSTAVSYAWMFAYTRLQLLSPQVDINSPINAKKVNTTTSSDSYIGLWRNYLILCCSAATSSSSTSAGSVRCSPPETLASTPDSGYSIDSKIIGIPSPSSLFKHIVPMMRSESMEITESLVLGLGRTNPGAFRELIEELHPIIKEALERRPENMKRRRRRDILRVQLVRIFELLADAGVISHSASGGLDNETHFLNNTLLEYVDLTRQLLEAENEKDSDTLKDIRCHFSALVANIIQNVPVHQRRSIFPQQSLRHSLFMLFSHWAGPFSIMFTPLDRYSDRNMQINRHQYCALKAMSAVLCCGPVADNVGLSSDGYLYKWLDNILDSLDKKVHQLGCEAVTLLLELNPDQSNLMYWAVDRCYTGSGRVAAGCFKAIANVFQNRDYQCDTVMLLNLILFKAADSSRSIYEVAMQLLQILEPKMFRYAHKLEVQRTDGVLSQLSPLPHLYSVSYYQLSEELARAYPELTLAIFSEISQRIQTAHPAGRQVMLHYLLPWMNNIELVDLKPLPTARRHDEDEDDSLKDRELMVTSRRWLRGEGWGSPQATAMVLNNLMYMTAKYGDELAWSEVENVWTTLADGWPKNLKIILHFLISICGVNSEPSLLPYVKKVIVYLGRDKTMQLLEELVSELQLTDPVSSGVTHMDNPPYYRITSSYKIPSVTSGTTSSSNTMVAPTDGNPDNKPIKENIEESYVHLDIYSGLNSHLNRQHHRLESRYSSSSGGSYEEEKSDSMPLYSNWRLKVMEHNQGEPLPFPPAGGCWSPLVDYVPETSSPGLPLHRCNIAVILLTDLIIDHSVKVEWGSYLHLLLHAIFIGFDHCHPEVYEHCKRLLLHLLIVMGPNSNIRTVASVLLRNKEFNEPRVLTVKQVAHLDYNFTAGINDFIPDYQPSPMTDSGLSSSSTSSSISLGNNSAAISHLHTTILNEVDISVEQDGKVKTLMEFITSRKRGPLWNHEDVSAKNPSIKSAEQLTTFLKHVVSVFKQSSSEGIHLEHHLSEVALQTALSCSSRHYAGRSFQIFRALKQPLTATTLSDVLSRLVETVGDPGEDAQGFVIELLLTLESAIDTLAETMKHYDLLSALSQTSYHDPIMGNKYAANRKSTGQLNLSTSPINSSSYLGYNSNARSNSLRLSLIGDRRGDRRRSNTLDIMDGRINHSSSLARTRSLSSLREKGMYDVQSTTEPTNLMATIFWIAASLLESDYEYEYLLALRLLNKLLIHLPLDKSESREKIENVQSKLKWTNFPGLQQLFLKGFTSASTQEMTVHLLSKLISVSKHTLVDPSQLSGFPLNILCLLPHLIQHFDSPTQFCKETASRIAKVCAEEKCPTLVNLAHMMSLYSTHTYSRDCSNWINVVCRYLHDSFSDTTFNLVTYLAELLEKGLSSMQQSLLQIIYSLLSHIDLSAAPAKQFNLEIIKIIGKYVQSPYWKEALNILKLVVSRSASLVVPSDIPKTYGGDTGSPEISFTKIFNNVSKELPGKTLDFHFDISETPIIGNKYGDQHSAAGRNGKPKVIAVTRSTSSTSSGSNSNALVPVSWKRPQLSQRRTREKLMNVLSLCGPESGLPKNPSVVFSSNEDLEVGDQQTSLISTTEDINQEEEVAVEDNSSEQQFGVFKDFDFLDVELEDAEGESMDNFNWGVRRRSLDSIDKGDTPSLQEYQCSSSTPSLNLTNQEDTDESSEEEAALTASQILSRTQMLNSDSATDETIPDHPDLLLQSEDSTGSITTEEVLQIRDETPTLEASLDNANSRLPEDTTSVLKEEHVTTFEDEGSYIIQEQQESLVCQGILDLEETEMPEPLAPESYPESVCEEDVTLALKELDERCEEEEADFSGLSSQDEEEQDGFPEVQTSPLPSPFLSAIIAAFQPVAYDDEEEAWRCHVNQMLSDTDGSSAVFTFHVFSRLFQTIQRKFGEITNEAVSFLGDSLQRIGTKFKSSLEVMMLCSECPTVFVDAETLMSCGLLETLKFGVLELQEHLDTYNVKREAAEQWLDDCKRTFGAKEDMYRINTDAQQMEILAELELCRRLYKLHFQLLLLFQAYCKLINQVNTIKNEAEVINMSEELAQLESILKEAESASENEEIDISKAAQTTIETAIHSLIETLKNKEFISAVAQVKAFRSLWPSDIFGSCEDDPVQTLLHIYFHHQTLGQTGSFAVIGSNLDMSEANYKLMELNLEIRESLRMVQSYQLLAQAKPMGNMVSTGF
UniProt P05114: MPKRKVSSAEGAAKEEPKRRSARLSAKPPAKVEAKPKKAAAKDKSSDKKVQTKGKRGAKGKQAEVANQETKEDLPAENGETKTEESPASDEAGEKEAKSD
UniProt O95182, whole entry: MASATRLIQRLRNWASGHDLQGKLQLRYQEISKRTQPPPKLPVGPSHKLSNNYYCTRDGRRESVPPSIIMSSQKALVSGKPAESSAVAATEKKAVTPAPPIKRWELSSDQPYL
UniProt O95864: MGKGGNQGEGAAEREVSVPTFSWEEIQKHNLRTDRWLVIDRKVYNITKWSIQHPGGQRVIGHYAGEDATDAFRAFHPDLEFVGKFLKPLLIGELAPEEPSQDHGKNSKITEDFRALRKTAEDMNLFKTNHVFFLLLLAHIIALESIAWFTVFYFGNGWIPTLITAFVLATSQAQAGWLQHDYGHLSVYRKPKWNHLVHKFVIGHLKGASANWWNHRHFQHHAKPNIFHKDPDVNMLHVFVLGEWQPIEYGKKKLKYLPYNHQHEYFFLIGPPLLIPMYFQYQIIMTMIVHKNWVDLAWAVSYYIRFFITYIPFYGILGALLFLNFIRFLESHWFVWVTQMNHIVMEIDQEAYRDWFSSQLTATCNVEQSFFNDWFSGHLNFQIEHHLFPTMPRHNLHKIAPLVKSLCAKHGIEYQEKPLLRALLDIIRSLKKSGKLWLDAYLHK
UniProt O95865: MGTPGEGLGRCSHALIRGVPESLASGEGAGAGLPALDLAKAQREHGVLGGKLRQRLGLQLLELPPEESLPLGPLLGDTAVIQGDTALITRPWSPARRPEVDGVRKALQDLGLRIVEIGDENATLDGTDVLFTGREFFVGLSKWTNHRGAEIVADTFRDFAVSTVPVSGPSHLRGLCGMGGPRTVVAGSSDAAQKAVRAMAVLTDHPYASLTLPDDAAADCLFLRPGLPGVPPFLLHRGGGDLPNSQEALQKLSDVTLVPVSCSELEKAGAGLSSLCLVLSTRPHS
UniProt P00813: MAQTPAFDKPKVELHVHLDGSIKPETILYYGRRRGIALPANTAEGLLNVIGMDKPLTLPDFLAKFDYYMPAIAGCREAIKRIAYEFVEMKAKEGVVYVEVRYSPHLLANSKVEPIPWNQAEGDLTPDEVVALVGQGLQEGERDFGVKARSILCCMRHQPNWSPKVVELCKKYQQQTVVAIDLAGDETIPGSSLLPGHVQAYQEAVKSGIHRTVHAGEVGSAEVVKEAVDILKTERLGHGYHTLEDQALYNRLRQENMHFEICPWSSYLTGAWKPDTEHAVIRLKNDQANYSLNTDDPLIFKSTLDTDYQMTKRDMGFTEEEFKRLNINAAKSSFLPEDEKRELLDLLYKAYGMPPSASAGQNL
UniProt O95402: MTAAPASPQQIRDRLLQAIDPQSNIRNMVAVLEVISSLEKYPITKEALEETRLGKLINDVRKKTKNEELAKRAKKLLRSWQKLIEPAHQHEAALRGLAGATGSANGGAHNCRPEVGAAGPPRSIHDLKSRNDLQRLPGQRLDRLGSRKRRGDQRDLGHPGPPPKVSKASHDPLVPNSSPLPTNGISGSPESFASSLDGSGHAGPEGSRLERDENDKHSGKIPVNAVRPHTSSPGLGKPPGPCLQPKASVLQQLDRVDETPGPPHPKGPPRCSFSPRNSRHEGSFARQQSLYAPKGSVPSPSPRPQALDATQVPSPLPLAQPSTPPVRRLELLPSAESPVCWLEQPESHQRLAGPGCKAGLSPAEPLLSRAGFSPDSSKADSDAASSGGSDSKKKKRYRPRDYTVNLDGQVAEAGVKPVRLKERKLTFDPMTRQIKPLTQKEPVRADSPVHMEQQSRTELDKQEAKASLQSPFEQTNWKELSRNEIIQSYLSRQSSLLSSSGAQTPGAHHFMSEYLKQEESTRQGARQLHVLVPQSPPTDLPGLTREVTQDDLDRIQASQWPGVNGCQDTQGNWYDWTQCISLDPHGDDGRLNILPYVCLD
UniProt P01137, whole entry: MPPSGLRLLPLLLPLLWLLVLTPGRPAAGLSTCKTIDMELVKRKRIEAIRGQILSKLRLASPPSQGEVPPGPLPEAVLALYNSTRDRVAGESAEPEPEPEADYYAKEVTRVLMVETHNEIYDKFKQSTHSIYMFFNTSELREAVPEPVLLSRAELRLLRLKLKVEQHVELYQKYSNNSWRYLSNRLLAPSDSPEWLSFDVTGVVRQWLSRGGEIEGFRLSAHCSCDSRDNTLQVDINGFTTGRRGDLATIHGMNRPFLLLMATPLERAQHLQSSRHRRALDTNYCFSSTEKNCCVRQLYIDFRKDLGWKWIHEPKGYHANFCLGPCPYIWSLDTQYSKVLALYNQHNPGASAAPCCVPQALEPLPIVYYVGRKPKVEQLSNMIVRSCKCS
UniProt O96017, whole entry: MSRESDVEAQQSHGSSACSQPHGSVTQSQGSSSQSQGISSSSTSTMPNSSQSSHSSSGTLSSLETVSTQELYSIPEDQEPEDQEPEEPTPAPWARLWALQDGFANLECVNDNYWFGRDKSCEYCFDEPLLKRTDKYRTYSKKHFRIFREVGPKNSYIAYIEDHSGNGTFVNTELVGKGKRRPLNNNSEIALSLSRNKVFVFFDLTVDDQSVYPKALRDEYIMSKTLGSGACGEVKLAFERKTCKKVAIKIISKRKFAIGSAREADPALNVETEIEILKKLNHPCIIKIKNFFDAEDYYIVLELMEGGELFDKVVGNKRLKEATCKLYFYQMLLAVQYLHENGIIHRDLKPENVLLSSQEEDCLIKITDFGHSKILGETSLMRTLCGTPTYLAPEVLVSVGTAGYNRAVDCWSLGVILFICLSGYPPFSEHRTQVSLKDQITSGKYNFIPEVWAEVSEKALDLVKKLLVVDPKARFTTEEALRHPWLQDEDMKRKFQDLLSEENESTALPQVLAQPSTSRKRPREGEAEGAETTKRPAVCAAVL

Compound: Nc1nc2c(ncn2[C@@H]2O[C@H](COP(=O)(O)OP(=O)(O)OP(=O)(O)O)[C@@H](O)[C@H]2O)c(=O)[nH]1 [guanosine triphosphate]
Test: NP40-soluble protein abundance relative to vehicle (solubility fold change) (ratio); higher = more soluble protein in presence of GTP
Procedure, shortened: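 Jurkat crude lysate prepared with a Dounce homogeniser was treated at eight concentrations spanning 0.1 to 10 mM, 10 min at room temperature then 3 min at 37 °C. Solubilisation with 0.8% NP40 and benzonase and ultracentrifugation preceded TMT labelling of the supernatant for LC-MS/MS. Fold change against the detergent-processed vehicle was determined per replicate from vsn-normalised intensities, across three independent experiments.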

Target | NP40-soluble protein abundance (concentration: 0.1mM) | NP40-soluble protein abundance (concentration: 0.5mM) | NP40-soluble protein abundance (concentration: 1mM) | NP40-soluble protein abundance (concentration: 2mM) | NP40-soluble protein abundance (concentration: 4mM) | NP40-soluble protein abundance (concentration: 6mM) | NP40-soluble protein abundance (concentration: 8mM) | NP40-soluble protein abundance (concentration: 10mM)
ULK1 (UniProt O75385) | 0.985 ± 0.12 | 1.1 ± 0.13 | 1.12 ± 0.076 | 1.12 ± 0.1 | 1.04 ± 0.036 | 1.09 ± 0.12 | 1.18 ± 0.18 | 1.1 ± 0.19
UniProt O96019 and related entries | 1.02 ± 0.033 | 1.05 ± 0.036 | 1.05 ± 0.049 | 1.09 ± 0.085 | 1.09 ± 0.09 | 1.11 ± 0.11 | 1.1 ± 0.071 | 1.06 ± 0.079
GOT2 (UniProt P00505) | 1 ± 0.018 | 1.01 ± 0.048 | 0.916 ± 0.026 | 0.906 ± 0.03 | 0.885 ± 0.019 | 0.886 ± 0.0084 | 0.853 ± 0.05 | 0.835 ± 0.051
UniProt P00167 and related entries | 0.89 ± 0.016 | 0.898 ± 0.04 | 0.892 ± 0.042 | 0.867 ± 0.071 | 0.837 ± 0.065 | 0.865 ± 0.076 | 0.821 ± 0.077 | 0.849 ± 0.076
UniProt O95163 | 1.13 ± 0.097 | 1.15 ± 0.14 | 1.07 ± 0.11 | 1.14 ± 0.2 | 1.16 ± 0.16 | 1.11 ± 0.17 | 1.09 ± 0.12 | 1.04 ± 0.12
SAP30 (UniProt O75446) | 0.981 ± 0.23 | 0.996 ± 0.15 | 1.14 ± 0.22 | 1.11 ± 0.15 | 1.12 ± 0.2 | 1.18 ± 0.18 | 1.22 ± 0.16 | 1.22 ± 0.2
UniProt P04234 | 0.872 ± 0.068 | 0.829 ± 0.043 | 0.88 ± 0.055 | 0.892 ± 0.048 | 0.88 ± 0.057 | 0.872 ± 0.041 | 0.802 ± 0.096 | 0.877 ± 0.037
ETHE1 (UniProt O95571) | 0.999 ± 0.025 | 0.971 ± 0.017 | 0.958 ± 0.059 | 0.893 ± 0.066 | 0.901 ± 0.075 | 0.883 ± 0.076 | 0.888 ± 0.07 | 0.848 ± 0.067
UniProt O75525 and related entries | 0.982 ± 0.018 | 1.02 ± 0.021 | 1.1 ± 0.066 | 1.14 ± 0.063 | 1.17 ± 0.061 | 1.2 ± 0.047 | 1.24 ± 0.11 | 1.27 ± 0.11
UniProt O94822 and related entries | 1.16 ± 0.18 | 1.1 ± 0.071 | 1.09 ± 0.16 | 1.17 ± 0.13 | 1.19 ± 0.22 | 1.11 ± 0.15 | 1.19 ± 0.17 | 1.11 ± 0.25
UniProt P04406 and related entries | 0.885 ± 0.094 | 0.936 ± 0.094 | 0.863 ± 0.1 | 0.89 ± 0.074 | 0.836 ± 0.09 | 0.865 ± 0.076 | 0.853 ± 0.085 | 0.846 ± 0.079
NDUFS3 (UniProt O75489) | 1.02 ± 0.032 | 1.02 ± 0.033 | 1.04 ± 0.026 | 1.06 ± 0.016 | 1.08 ± 0.07 | 1.05 ± 0.056 | 1.06 ± 0.082 | 1.06 ± 0.07
SGPL1 (UniProt O95470) | 0.986 ± 0.084 | 0.984 ± 0.061 | 0.963 ± 0.013 | 0.977 ± 0.04 | 1.04 ± 0.044 | 0.964 ± 0.028 | 0.958 ± 0.053 | 0.948 ± 0.049
GGCT (UniProt O75223) | 0.938 ± 0.025 | 0.98 ± 0.05 | 0.898 ± 0.062 | 0.842 ± 0.068 | 0.817 ± 0.084 | 0.872 ± 0.1 | 0.846 ± 0.078 | 0.829 ± 0.089
FRYL (UniProt O94915) | 1.06 ± 0.068 | 1.07 ± 0.072 | 1.12 ± 0.14 | 1.19 ± 0.16 | 1.21 ± 0.17 | 1.2 ± 0.2 | 1.25 ± 0.22 | 1.21 ± 0.17
HMGN1 (UniProt P05114) | 1.26 ± 0.29 | 1.29 ± 0.33 | 1.39 ± 0.48 | 1.52 ± 0.48 | 1.34 ± 0.34 | 1.83 ± 0.67 | 1.66 ± 0.36 | 1.8 ± 0.33
UniProt O75145 and related entries | 0.96 ± 0.11 | 1 ± 0.14 | 0.997 ± 0.063 | 1.03 ± 0.12 | 0.993 ± 0.097 | 0.974 ± 0.014 | 1.01 ± 0.072 | 1 ± 0.03
NDUFA7 (UniProt O95182) | 1.07 ± 0.073 | 1 ± 0.043 | 1.24 ± 0.21 | 1.18 ± 0.18 | 1.23 ± 0.23 | 1.24 ± 0.22 | 1.38 ± 0.2 | 1.44 ± 0.31
UniProt P00491 | 1 ± 0.11 | 0.966 ± 0.049 | 0.929 ± 0.084 | 0.912 ± 0.025 | 0.906 ± 0.022 | 0.887 ± 0.028 | 0.862 ± 0.063 | 0.847 ± 0.041
FADS2 (UniProt O95864) | 1.09 ± 0.093 | 1.1 ± 0.097 | 1.02 ± 0.12 | 1.01 ± 0.13 | 1.01 ± 0.14 | 0.95 ± 0.074 | 0.938 ± 0.11 | 0.906 ± 0.13
UniProt O95243 and related entries | 1.04 ± 0.033 | 0.984 ± 0.083 | 1.06 ± 0.012 | 1.07 ± 0.059 | 1.18 ± 0.11 | 1.17 ± 0.055 | 1.15 ± 0.076 | 1.054 ± 0.0097
HIP1R (UniProt O75146) | 0.994 ± 0.025 | 1.03 ± 0.023 | 1.02 ± 0.047 | 1.07 ± 0.069 | 1.07 ± 0.056 | 1.13 ± 0.046 | 1.158 ± 0.0077 | 1.16 ± 0.039
DDAH2 (UniProt O95865) | 0.963 ± 0.06 | 0.944 ± 0.063 | 0.928 ± 0.058 | 0.881 ± 0.1 | 0.859 ± 0.09 | 0.877 ± 0.1 | 0.874 ± 0.085 | 0.85 ± 0.076
UniProt O94903 | 0.972 ± 0.066 | 0.912 ± 0.061 | 0.949 ± 0.073 | 0.899 ± 0.096 | 0.892 ± 0.086 | 0.874 ± 0.081 | 0.902 ± 0.069 | 0.897 ± 0.078
ADA (UniProt P00813) | 0.955 ± 0.28 | 0.879 ± 0.16 | 0.898 ± 0.27 | 0.824 ± 0.15 | 0.848 ± 0.25 | 0.807 ± 0.15 | 0.831 ± 0.28 | 0.781 ± 0.12
MED26 (UniProt O95402) | 1.05 ± 0.024 | 0.93 ± 0.084 | 1.08 ± 0.26 | 1 ± 0.05 | 1.19 ± 0.15 | 1.16 ± 0.009 | 1.28 ± 0.028 | 1.29 ± 0.098
TGFB1 (UniProt P01137) | 0.926 ± 0.072 | 1.02 ± 0.11 | 0.908 ± 0.091 | 0.961 ± 0.092 | 0.987 ± 0.055 | 0.958 ± 0.088 | 0.896 ± 0.11 | 0.968 ± 0.14
UniProt O96017 and related entries | 1.04 ± 0.037 | 1.07 ± 0.062 | 0.987 ± 0.029 | 0.98 ± 0.051 | 0.968 ± 0.044 | 0.937 ± 0.042 | 0.933 ± 0.015 | 0.881 ± 0.071
GPI (UniProt P06744) | 0.939 ± 0.031 | 0.96 ± 0.016 | 0.895 ± 0.04 | 0.889 ± 0.016 | 0.859 ± 0.019 | 0.879 ± 0.012 | 0.847 ± 0.042 | 0.846 ± 0.044
TOMM40 (UniProt O96008) | 1.01 ± 0.045 | 1.04 ± 0.031 | 0.953 ± 0.041 | 0.967 ± 0.018 | 0.946 ± 0.043 | 0.936 ± 0.037 | 0.939 ± 0.077 | 0.905 ± 0.061

Taken from above:
NP40-soluble protein abundance (concentration: 0.1mM) with GOT2 (UniProt P00505) is entered as 1 ± 0.018
NP40-soluble protein abundance (concentration: 1mM) with UniProt P00491 is entered as 0.929 ± 0.084
